# The whole screen tested about 580,000 compounds, of which about 6,100 (1.1%) were called active. Inconclusive means that the source gave no clear call. Such entries were picked first, then a sample of the others. The call rests on the fitted dose curve; in most records, active means well fitted inhibition curve with a large enough effect; inconclusive means small, poorly fitted or top-dose-only effect, or another doubt; inactive means no such curve, though single readings can be large or run the other way. Where the call is inconclusive, the potency comes from a doubtful curve fit.
# Amino acid sequences for entries named in this document (tags omitted). A change or cut given only in a name is not applied to a line headed by its entry.
# UniProt P18054: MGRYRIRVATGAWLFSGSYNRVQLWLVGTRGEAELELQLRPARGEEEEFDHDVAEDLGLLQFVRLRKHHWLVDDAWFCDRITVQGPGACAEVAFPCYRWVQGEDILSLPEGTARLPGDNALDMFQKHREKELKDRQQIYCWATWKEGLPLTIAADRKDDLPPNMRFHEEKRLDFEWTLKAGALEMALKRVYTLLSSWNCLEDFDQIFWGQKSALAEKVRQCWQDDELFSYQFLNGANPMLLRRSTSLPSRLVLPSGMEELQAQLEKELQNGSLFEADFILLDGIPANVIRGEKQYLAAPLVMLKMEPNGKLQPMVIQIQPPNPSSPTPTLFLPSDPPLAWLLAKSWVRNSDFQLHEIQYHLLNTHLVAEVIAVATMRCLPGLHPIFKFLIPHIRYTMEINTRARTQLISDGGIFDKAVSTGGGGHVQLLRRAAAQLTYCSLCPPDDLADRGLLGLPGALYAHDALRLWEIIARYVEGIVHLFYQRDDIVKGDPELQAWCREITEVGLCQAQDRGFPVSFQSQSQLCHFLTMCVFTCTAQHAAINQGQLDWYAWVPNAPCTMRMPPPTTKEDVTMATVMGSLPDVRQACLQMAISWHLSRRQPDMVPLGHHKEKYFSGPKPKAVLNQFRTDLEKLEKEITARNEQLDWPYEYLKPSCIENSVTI
# Biological target: Polyunsaturated fatty acid lipoxygenase ALOX12 (Homo sapiens) (UniProt P18054)
# Assay: Primary qHTS assay for inhibitors of human arachidonate 12S-lipoxygenase (ALOX12): Round 2
# Details: purified 12hLO, xylenol orange hydroperoxide absorbance; activity change, negative = inhibition: at 108 µM (top of the series) unless noted
# Procedure, shortened: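 Purified human 12hLO at 150 nM in 25 mM Hepes, 0.01% Triton X-100, pH 7.0, preincubated 15 min at room temperature with compound. Reaction started with 40 uM arachidonic acid, 30 min at room temperature. Hydroperoxide measured by Fe-xylenol orange, 573/405 nm absorbance ratio.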
# On the % scale 0 is the no-effect control and ±100 the full control effect; potency means the concentration at half of the fitted maximal effect.
Compound,Potency,"activity change, negative = inhibition"
CN1CC[C@H]2CN(C(=O)COCc3nc4ccc(F)cc4[nH]3)C[C@H]21,inactive,–
CN(c1ccccc1)c1nc(N)c([N+](=O)[O-])c(Nc2cccc(F)c2)n1,"inconclusive: 112 µM [inhibitor, single point]",–
CCC(C(=O)Nc1cccc(Cl)c1)n1nc(-c2ccc(C)cc2)ccc1=O (stereo unspecified),"inconclusive: 28.2 µM [inhibitor, partial curve, poor fit]",–
S=C(NCCCc1ccccc1)Nc1ccc(Br)cc1,"inconclusive: 44.7 µM [inhibitor, partial curve, poor fit]",–
COc1ccc(Br)cc1CNC(=O)Nc1cccs1,"inconclusive: 25.1 µM [inhibitor, full curve, poor fit]",–
Cc1ccc(C)c(-n2ccnc2SC2CCCCC2=O)c1 (stereo unspecified),inactive,–
Cc1ccccc1NC(=O)CCc1c(C)nn(-c2ccc(N3CCCCC3)nn2)c1C,–,inconclusive: -30.9% [inhibitor]
O=C(CSc1nnc(-c2ccco2)n1Cc1ccccc1)OC1CCCCC1,inactive,–
OC1(Cc2cc(-c3ccccc3)no2)CCN(c2ncncn2)CC1,"inconclusive: 56.2 µM [inhibitor, partial curve, poor fit]",–
CCn1nc(C(=O)OCC(=O)N2CCCc3ccccc32)c2ccccc2c1=O,"inconclusive: 100 µM [inhibitor, partial curve, poor fit]",–
N#Cc1ccc(C(=O)NCCc2ccccn2)cc1,"inconclusive: 89.1 µM [inhibitor, single point]",–
N#Cc1ccc(CN2CCCC(c3nc(-c4cccnc4)no3)CCNC(=O)CC2)cc1 (stereo unspecified),inactive,–
COc1ccccc1CNC(=O)C(=O)Nc1ccc(C(=O)N2CCC(C)CC2)cc1,"inconclusive: 50.1 µM [inhibitor, partial curve, poor fit]",–
COc1ccccc1C(=O)N1CCN(c2cccc(Cl)c2)CC1,inactive,–
O=C(NC(=S)N1CCCc2ccccc21)c1ccccc1,"inconclusive: 44.7 µM [inhibitor, partial curve, poor fit]",–
CCOC(=O)C1CCN(c2c(C(=O)c3ccccc3)cnc3ccc(CC)cc23)CC1,"inconclusive: 50.1 µM [inhibitor, partial curve, poor fit]",–
COc1ccc(N2CCN(C(CNC(=O)C3CCCCC3)c3cccnc3)CC2)cc1 (stereo unspecified),inactive,–
Cc1nc2ccccc2nc1COC(=O)c1ccc2nccnc2c1,"inconclusive: 25.1 µM [inhibitor, partial curve, poor fit]",–
Cn1ccnc1CN1C[C@@H]2C[C@H]1C(=O)N(Cc1ccccn1)c1ccccc1O2,inactive,–
O=C(Nc1cccc2cccnc12)c1cccc(S(=O)(=O)N2CCN(Cc3ccccc3)CC2)c1,inactive,–
CCc1nnc(NC(=O)c2cccc(S(=O)(=O)N3CCN(C(C)=O)CC3)c2)s1,"inconclusive: 44.7 µM [inhibitor, partial curve, poor fit]",–
Cc1cccc(CN2CCCC23Cc2ccccc2CNC3=O)c1 (stereo unspecified),"inconclusive: 112 µM [inhibitor, single point]",–

Compound,Potency,"activity change, negative = inhibition"
O=C(/C=C/c1ccc(Cl)cc1Cl)c1cc(Cl)ccc1O,inactive,–
O=C(Nc1ccc(N2CCOCC2)cc1)c1ccc(S(=O)(=O)NCc2ccco2)cc1,inactive,–
CCCS(=O)(=O)NC(=O)C1(C)CCN(C(=O)c2cncc(Br)c2)C1 (stereo unspecified),"inconclusive: 39.8 µM [inhibitor, partial curve, poor fit]",–
COCc1nnc2n1CCC(NC(=O)CCc1nc3ccccc3s1)CC2 (stereo unspecified),inactive,–
Cc1ccc(-c2onc(C)c2C)cc1S(=O)(=O)N1CCCCC1,"inconclusive: 141 µM [inhibitor, partial curve, poor fit]",–
Cc1[nH][nH]c(=O)c1C(c1ccc(-c2ccc(F)cc2)o1)c1c(C)[nH][nH]c1=O,"inconclusive: 5.62 µM [inhibitor, full curve, poor fit]",–
CC(=O)c1ccc(NC(=O)CSC2=NS(=O)(=O)c3ccc(C)cc3N2)cc1,"inconclusive: 112 µM [inhibitor, partial curve, poor fit]",–
CCOC(=O)c1sc2ccccc2c1S(=O)(=O)Nc1c(C)cccc1C,"inconclusive: 63.1 µM [inhibitor, partial curve, poor fit]",–
Cc1cc(NC(=O)N2CC=C(c3c[nH]c4ccccc34)CC2)ccc1Br,"inconclusive: 20 µM [inhibitor, full curve, poor fit]",–
CC(=O)N1N=C(c2c(-c3ccccc3)c3cc(Br)ccc3[nH]c2=O)CC1c1ccco1 (stereo unspecified),"inconclusive: 79.4 µM [inhibitor, partial curve, poor fit]",–
COc1ccc2ccccc2c1C1C(C#N)=C(N)OC2=C1C(=O)CC(C)(C)C2 (stereo unspecified),"inconclusive: 39.8 µM [inhibitor, partial curve, poor fit]",–
CCC(=O)N1CCN(c2nc3c(s2)CC(C(=O)N2CCN(CC)CC2)CC3)CC1 (stereo unspecified),"inconclusive: 11.2 µM [inhibitor, full curve]",–
C/C=C/C=C/C(=O)Nc1ccccc1-c1cccs1,"inconclusive: 39.8 µM [inhibitor, partial curve, poor fit]",–
Cc1c(C(=O)/C=C/N(C)C)nnn1-c1ccc(Cl)c(Cl)c1,"inconclusive: 39.8 µM [inhibitor, partial curve, poor fit]",–
CC(C)(C)Sc1ccc2nn(CC(=O)NCc3ccc(F)cc3)c(=O)n2n1,inactive,–
O=C(CCC1CCCCC1)NCCc1cccnc1,inactive,–
COc1ccc(-c2nc(N(C)Cc3ccco3)c3ccccc3n2)cc1,"inconclusive: 44.7 µM [inhibitor, full curve, poor fit]",–
CCc1ccc(/C(C)=N\Nc2ccc([N+](=O)[O-])cc2)cc1,"inconclusive: 79.4 µM [inhibitor, partial curve, poor fit]",–
O=C(NCCc1ccccc1)c1ccc(NC(=O)C2CC2)cc1,"inconclusive: 112 µM [inhibitor, single point]",–
Cc1ccc(/C=N/N(c2ccccc2)c2ccccc2)cc1,inactive,–
CCN(CC)c1ccc(C(=O)OCC(=O)Nc2ccc3[nH]c(=O)[nH]c3c2)cc1,"inconclusive: 44.7 µM [inhibitor, partial curve, poor fit]",–
O=C(NCCCl)c1ccc2ccccc2n1,"inconclusive: 0.447 µM [inhibitor, full curve, poor fit]",–

Compound,Potency,"activity change, negative = inhibition"
Cc1ccccc1C1=Nn2c(nnc2-c2ccco2)SC1,"inconclusive: 35.5 µM [inhibitor, partial curve, poor fit]",–
O=C(CSc1nnnn1C1CCCC1)NC(c1ccc(F)cc1)c1cccs1 (stereo unspecified),"inconclusive: 126 µM [inhibitor, partial curve, poor fit]",–
O=C(Nc1ccc2c(c1)OCCO2)C(C1CC1)n1c(=O)c(-c2cc3ccccc3[nH]2)nc2ccccc21 (stereo unspecified),"inconclusive: 100 µM [inhibitor, single point]",–
N#Cc1ccc(OCCOC(=O)c2ccccc2F)cc1,"inconclusive: 50.1 µM [inhibitor, single point]",–
CCN(CC)S(=O)(=O)c1ccc(NC(=O)c2ccc(CN3CCOCC3)cc2)cc1,inactive,–
COc1ccc(S(=O)(=O)N2CCCCCC2)cc1C(=O)N(C)CC(=O)Nc1ccc(Cl)c(Cl)c1,inactive,–
CCOc1ccc(NC(=O)N(CCN2CCOCC2)Cc2ccc3c(c2)CCCN3CC)cc1,"inconclusive: 44.7 µM [inhibitor, partial curve, poor fit]",–
CC(O)(c1ccc(F)c(F)c1)c1nc(-c2cc(F)cc(F)c2)cs1 (stereo unspecified),"inconclusive: 89.1 µM [inhibitor, partial curve, poor fit]",–
CN(CCC(N)=O)C(=O)C1CCCN1S(=O)(=O)c1ccc(F)cc1 (stereo unspecified),inactive,–
CCCS(=O)(=O)c1ncc(Cl)c(C(=O)N(Cc2ccccc2)Cc2ccco2)n1,inactive,–
CC(O)(c1cccc(F)c1)c1nc(-c2ccccc2)cs1 (stereo unspecified),active: 10 µM,–
CCN(CC)S(=O)(=O)c1ccc(OCC2CCCCO2)c([N+](=O)[O-])c1 (stereo unspecified),"inconclusive: 126 µM [inhibitor, partial curve, poor fit]",–
CC1C(=O)CCN(CCO)C1C (stereo unspecified),"inconclusive: 35.5 µM [inhibitor, partial curve, poor fit]",–
COc1ccc(Cl)cc1NC(=O)CN(C)C(=O)c1cc2ccccc2cc1O,"inconclusive: 112 µM [inhibitor, partial curve, poor fit]",–
NC(=O)COC(=O)c1ccc(Cl)c(S(=O)(=O)N(Cc2ccccc2)c2ccc(Cl)cc2)c1,inactive,–
CCN(CC)C(=S)Sc1ccc([N+](=O)[O-])cc1,active: 5.62 µM,–
CSc1ccccc1NC(=S)N/N=C/c1cccn1Cc1cccc(C)c1,"inconclusive: 44.7 µM [inhibitor, partial curve, poor fit]",–
O=C(Nc1cccc2cnccc12)c1cccc(S(=O)(=O)N2CCCCCC2)c1,inactive,–
Cc1cc(C)n2c(NC3CCCC3)c(-c3cc4ccccc4o3)nc2n1,"inconclusive: 100 µM [inhibitor, single point]",–
Cc1cc(C(=O)Nc2sc(C)c(C)c2C#N)cs1,"inconclusive: 39.8 µM [inhibitor, partial curve, poor fit]",–
C#CCO[C@@H]1C[C@H](n2cnc3c(NC(=O)c4ccccc4)ncnc32)O[C@@H]1CO,"inconclusive: 39.8 µM [inhibitor, single point]",–
O=C(/C(=C/c1ccncc1)n1ccnc1)c1ccc(Cl)cc1Cl,"inconclusive: 100 µM [inhibitor, partial curve, poor fit]",–

# A portion of the results above, as a working copy:
Compound,Potency,"activity change, negative = inhibition"
CC(O)(c1ccc(F)c(F)c1)c1nc(-c2cc(F)cc(F)c2)cs1 (stereo unspecified),"inconclusive: 89.1 µM [inhibitor, partial curve, poor fit]",–
CN(CCC(N)=O)C(=O)C1CCCN1S(=O)(=O)c1ccc(F)cc1 (stereo unspecified),inactive,–
CCCS(=O)(=O)c1ncc(Cl)c(C(=O)N(Cc2ccccc2)Cc2ccco2)n1,inactive,–
CC(O)(c1cccc(F)c1)c1nc(-c2ccccc2)cs1 (stereo unspecified),active: 10 µM,–

# Source: PubChem BioAssay AID1671190 (National Center for Advancing Translational Sciences (NCATS), 2021)
